Assay results published in paper PMC10407601.
For at least one entry, the source does not settle the construct or the ends of the probe.

Test system: PtNAC3 (Pinus tabuliformis)
Assay: EMSA
Settings: Beyotime EMSA luminous kit GS009; pH and temperature not stated; recombinant protein; protein details: GST; label: 5' biotin

CATCCTCTATACGTAAAATTCTGGTTACCCACCAGGAAGTATCGCGTGTTT (double strand) [PtZFP30 promoter EMSA probe (ZFP30p)]
binding result: binds
